Data as given in patent US20230227561A1.
No constants are given. Whether binding was seen depends on the method and setting. Some entries that bind do so weakly or less than the wild type.

T1: recombinant soluble canine CD16A (canine) (UniProt E2RP87)
T1 sequence: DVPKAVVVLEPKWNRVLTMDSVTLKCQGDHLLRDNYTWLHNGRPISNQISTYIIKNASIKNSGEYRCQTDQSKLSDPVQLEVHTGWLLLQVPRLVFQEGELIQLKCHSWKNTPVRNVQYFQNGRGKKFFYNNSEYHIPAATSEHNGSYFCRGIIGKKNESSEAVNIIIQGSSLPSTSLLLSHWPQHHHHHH

T2: canine CD16A on dog peripheral blood leukocytes / PBMC (canine) (UniProt E2RP87)
T2 sequence: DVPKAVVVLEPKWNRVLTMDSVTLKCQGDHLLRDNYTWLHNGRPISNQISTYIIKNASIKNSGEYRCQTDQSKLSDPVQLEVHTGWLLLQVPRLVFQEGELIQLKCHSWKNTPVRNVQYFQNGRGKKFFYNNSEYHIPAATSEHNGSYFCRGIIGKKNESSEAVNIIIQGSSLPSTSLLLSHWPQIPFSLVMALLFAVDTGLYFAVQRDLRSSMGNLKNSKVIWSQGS


Experiments:
[1] = target: T1, recombinant soluble canine CD16A (canine); experiment: Western blot, mAb at 5 ug/ml
[2] = target: T2, canine CD16A on dog peripheral blood leukocytes / PBMC (canine); experiment: flow cytometry on dog PBMC

binding [1] | binding [2] | Binder
binds |  | anti-canine CD16A mAb (clone 4A5) (antibody, IgG1) VH: EVQLQQSGAELVRSGASVKLSCTASGFNIKDYYMHWVKQRPEQGLEWIGWLDPENGDTVYAPKFQGRATMTADTSSNTAYLHLSSLTSEDTAVYYCNALVYSLLGQDYWGQGTTLTVSSAKTTPPSVYPLAPGSAAQTNSMVTLGCLVKGYFPEPVTVTWNSGSLSSGVHTFPAVLQSDLYTLSSSVTVPSS VL: QILLTQSPAIMSASPGEKVTMTCSASSSVGYMHWYQQKPGSSPKPWIYDTSDLASGFPARFSGSRSGTSYSLIISSMEAEDAATYYCHQRSFYPYTFGGGTKLEIKRADAAPTVSIFPPSSEQLTSGGASVVCFLNNFYPKDINVKWKIDGSERQNGVLNSWTDQDSKDSTYSMSSTLTLTK
 | binds | anti-canine CD16 antibody fragment alone (protein, FITC-labelled in the PBMC assay (sites not given)) VL: MEQILLTQSPAIMSASPGEKVTMTCSASSSVGYMHWYQQKPGSSPKPWIYDTSDLASGFPARFSGSRSGTSYSLIISSMEAEDAATYYCHQRSFYPYTFGGGTKLEIK VH: EVQLQQSGAELVRSGASVKLSCTASGFNIKDYYMHWVKQRPEQGLEWIGWLDPENGDTVYAPKFQGRATMTADTSSNTAYLHLSSLTSEDTAVYYCNALVYSLLGQDYWGQGTTLTVSS
